This passage reports binding results from paper PMC3681934.

Protein sequences, listed by entry. Tags and fused reporters are not part of them.
UniProt Q9Z1R2: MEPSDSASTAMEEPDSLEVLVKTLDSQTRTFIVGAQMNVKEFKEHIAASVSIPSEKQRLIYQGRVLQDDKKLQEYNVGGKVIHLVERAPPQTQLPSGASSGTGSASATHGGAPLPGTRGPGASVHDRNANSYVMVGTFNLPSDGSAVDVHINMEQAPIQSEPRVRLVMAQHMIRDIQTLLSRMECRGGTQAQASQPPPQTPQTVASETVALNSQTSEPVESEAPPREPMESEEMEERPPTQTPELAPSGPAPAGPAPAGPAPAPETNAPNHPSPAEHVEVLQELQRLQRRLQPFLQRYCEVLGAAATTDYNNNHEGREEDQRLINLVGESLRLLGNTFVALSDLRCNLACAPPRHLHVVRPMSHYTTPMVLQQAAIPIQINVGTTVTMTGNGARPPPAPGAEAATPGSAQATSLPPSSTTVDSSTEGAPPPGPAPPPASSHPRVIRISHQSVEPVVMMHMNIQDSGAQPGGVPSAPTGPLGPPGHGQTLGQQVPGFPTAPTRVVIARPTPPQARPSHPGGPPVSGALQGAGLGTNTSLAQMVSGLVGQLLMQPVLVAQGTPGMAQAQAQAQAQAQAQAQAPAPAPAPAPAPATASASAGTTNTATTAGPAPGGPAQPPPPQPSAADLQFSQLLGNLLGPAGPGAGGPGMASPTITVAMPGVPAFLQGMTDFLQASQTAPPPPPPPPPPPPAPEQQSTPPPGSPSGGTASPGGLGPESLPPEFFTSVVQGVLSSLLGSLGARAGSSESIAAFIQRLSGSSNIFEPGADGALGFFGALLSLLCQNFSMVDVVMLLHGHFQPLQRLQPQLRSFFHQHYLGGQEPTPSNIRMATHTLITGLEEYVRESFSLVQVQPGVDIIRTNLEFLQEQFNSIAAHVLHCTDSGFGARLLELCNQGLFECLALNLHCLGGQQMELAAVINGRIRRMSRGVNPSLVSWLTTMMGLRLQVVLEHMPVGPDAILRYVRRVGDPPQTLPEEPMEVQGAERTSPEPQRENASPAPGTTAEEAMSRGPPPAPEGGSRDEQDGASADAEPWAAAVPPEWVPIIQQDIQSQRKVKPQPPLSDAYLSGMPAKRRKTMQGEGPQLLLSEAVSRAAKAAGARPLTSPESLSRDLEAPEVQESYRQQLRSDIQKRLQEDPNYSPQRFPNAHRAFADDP
UniProt P16054: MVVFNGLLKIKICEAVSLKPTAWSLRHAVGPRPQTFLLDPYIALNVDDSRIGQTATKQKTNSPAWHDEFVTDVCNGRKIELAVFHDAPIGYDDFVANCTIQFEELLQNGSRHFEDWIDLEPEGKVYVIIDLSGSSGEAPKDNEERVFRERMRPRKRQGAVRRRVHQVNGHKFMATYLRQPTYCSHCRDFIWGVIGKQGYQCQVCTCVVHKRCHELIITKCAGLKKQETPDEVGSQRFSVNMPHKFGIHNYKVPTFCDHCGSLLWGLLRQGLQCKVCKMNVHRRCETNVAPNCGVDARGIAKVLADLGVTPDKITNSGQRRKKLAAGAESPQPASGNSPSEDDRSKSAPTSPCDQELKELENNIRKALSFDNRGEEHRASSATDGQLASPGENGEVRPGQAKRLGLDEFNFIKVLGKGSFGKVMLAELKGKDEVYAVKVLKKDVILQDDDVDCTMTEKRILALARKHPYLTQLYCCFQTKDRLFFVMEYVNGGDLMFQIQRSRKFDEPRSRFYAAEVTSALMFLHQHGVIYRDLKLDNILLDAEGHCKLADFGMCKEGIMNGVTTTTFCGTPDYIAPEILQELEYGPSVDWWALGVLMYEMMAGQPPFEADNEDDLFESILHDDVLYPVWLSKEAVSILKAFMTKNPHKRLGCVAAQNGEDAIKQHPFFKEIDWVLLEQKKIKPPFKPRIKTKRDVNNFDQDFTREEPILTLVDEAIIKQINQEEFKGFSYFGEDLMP
UniProt Q62261: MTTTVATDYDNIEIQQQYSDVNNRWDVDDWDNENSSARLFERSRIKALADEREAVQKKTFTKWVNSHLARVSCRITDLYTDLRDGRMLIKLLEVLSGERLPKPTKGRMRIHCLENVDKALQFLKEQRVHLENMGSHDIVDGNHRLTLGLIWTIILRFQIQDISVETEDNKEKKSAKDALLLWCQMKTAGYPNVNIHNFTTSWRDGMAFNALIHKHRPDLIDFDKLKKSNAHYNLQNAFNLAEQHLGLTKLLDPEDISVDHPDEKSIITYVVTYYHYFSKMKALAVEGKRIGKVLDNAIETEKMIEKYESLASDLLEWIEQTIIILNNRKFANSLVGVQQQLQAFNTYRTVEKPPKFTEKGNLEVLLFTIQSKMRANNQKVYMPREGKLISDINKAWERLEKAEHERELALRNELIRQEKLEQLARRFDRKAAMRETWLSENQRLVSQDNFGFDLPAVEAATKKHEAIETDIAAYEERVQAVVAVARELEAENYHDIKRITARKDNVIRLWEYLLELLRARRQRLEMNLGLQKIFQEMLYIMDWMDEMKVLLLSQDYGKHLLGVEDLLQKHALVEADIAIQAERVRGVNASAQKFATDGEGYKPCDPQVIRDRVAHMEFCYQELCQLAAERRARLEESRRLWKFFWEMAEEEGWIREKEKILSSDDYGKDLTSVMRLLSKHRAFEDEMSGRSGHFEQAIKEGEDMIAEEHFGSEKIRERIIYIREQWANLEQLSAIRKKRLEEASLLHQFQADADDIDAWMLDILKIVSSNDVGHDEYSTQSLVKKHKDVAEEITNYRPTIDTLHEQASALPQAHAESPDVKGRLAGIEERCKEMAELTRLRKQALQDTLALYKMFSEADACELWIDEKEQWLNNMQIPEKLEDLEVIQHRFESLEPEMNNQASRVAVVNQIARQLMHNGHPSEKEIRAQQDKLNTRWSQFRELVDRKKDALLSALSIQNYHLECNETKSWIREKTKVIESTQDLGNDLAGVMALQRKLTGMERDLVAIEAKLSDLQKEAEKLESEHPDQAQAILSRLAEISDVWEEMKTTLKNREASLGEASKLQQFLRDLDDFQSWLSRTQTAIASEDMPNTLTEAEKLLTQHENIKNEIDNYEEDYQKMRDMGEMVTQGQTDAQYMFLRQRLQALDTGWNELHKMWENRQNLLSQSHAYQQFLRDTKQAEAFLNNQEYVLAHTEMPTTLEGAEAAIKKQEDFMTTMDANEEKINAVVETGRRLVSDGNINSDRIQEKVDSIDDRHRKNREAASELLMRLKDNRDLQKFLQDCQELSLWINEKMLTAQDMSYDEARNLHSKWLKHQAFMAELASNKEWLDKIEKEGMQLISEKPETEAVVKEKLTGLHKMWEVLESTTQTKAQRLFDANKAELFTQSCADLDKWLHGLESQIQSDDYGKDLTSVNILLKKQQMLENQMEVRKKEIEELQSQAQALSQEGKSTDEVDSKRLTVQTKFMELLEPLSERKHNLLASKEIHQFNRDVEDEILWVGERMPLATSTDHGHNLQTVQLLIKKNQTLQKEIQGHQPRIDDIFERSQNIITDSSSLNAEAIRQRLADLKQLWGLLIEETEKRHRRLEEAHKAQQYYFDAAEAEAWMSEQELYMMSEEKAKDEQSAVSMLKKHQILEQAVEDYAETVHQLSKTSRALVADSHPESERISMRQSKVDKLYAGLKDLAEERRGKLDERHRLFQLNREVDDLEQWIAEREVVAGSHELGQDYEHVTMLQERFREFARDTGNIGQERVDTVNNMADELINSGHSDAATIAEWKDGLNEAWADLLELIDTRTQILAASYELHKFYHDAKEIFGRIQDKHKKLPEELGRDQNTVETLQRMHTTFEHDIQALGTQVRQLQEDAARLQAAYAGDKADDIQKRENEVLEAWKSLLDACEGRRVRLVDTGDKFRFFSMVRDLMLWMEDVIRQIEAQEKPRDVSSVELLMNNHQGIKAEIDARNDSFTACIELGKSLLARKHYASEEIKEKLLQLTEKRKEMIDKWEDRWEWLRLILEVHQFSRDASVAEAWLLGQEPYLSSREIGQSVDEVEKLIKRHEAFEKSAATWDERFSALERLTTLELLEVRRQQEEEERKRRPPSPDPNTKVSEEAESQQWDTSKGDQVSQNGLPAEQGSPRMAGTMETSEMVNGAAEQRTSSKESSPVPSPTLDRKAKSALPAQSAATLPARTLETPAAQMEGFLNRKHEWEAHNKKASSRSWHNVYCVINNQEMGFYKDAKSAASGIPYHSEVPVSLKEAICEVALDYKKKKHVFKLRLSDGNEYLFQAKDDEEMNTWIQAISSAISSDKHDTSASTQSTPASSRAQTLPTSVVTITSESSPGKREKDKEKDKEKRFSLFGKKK

These are yes or no findings as the source states them, for the method shown. Binding seen in cells or lysates may run through a third protein. Here binding means that the protein was enriched with, or labelled near, the bait; the list need not be complete. Sequences can lack the tags named with a protein.

The labels stand for the following.
T1: IL1RAPL1-ICD fused with maltose-binding protein (entire cytoplasmic domain of mouse IL1RAPL1, residues 379-696) (mouse) (UniProt P59823)
T1 sequence: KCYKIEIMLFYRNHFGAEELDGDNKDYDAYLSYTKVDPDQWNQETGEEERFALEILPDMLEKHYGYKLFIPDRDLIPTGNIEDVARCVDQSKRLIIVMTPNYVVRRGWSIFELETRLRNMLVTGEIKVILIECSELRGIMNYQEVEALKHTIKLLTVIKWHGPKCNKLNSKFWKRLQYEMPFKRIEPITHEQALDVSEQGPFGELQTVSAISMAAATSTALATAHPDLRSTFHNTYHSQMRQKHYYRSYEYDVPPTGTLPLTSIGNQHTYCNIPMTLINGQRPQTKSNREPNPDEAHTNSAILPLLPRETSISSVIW

B1: Snap-25-interacting protein (endogenous, mouse forebrain) (protein, UniProt Q9QWI6 1-1250)
chain: MQPWQCLRRFALAWWERTAEGRARSPREEVGPRDPGGRGEPDPERSSPPMLSADDAEYPREYRTLGGGGGGGSGGRRFSNVGLVHTSERRHTVIAAQSLEALSGLQKADADRKRDAFMDHLKSKYPQHALALRGQQDRMREQVGGWTVDPVCLLSSLCSHLHGDSTPSGAGQPAQQPNYWSFKTRSSRHTQGAQPGLADQAAKLSYASAESLETMSEAELPLGFSRMNRFRQSLPLSRSASQTKLRSPGVLFLQFGEETRRVHITHEVSSLDTLHALIAHMFPQKLTMGMLKSPNTAILIKDEARNVFYELEDVRDIQDRSIIKIYRKEPLYAAFPGSHLTNGDLRREMVYASRESSPTRRLNNLSPASHLASSSPPPGLPSGLPSGLPSGSPSRSRLSYAGGRPPSYAGSPVHHAAERLGGAPTGQGVSPSPSAILERRDVKPDEDLAGKAGGMVLVKGEGLYADPYGLLHEGRLSLAAAAETHSHTRARAACTSGVPCALSAPTPLPRCSPTWRTRCTRRALAALYGDGYGFRLPPSSPQKLADVSAPSGGPPPPHSPYSGPPSRGSPVRQSFRKDSGSSSVFAESPGGKARSTGSASTAGAPPSELFPGPGERSLVGFGPPVPAKDTETRERMEAMEKQIASLTGLVQSALLRGSEPETPSEKVEGSNGAATPSAPVCGSGSKSSGATPVSGPPPPSASSTPAGQPTAVSRLQMQLHLRGLQNSASDLRGQLQQLRNVQLQNQESVRALLKPTEADVSMRVSEAARRQEDPLQRQRTLVEEERLRYLNDEELITQQLNDLEKSVEKIQRDVAHNHRLMPGPELEEKALVLKQLGETLTELKAHFPGLQSKMRVVLRVEVEAVKFLKEEPQRLDGLLKRCRGVTDTLAQIRRQVDEGMWPPPNNLLNQSPKKVAAETDFSKGLDFEIPPPSPPLNLHELSGPAEGTPLTPKSTNPTKCLDASSKRNTDKAVSVEAAERDWEEKRAALTQYSAKDINRLLEETQAELLKAIPDLDCASKTHPGPAPTPDHKPPKAPHGQKAAPRTEPSGRRGSDELTVPRYRTEKPSKSPPPPPPRRSFPSSHGLTTTRTGEVVVTSKKDSVFIKKAESEELEVQKPQVKLRRAVSEVVRPASTPPIMASAIKDEDDEERIIAELESGGSSVPPMKVVTPGASRLKAAQGPAGSPDKGKHGKQRTEYMRIQAQQQATKPSKEVSGPNETSSPGSEKPSGSRTSIPVLTSFGARNSSISF
B2: Ras protein activator like 1 (endogenous, mouse forebrain) (protein, UniProt Q9Z268 1-799)
chain: MAKSGSLSIRVVEGRALPAKDVSGSSDPYCLVKVDDQVVARTATIWRSLSPFWGEEYTVHLPLDFHHLAFYVLDEDTVGHDDIIGKISLSKEAITADPRGIDSWINLSRVDPDAEVQGEVCLDVKLLEDARGRCLRCHVRQARDLAPRDISGTSDPFARVFWGNHSLETSTIKKTRFPHWDEVLELREAPGTTSPLRVELWDWDMVGKNDFLGMVEFTPQTLQQKPPNGWFRLLPFPRAEDSGGSLGALRLKVRLTEDRVLPSQYYQPLMELLLESVQGPAEEDTTSPLALLEELASGDCRQDLATKLVKLFLGRGLAGPFLDYLTRREVARTNDPNTLFRSNSLASKSMEQFMKLVGMRYLHEVLRPVISRVFEEKKYMELDPCKMDLNRSRRISFKGTPTEEQVRETSLGLLTGYLGSVVDAIVSSTGRCPLALRLAFKQLQRCVEKRFSGIEHQDVKYLAISGFLFLRFFAPAILTPKLFDLRDQHADPQTSRSLLLLAKAVQSIGNLGQQLGQGKEQWLAPLHPFLLQSISRVRDFLDQLVDVDEDEEAGGPACALVQPSTIVREGFLLKRKEEPGGLATRFAFKKRYFRLSGRDLSYSKTPEWQVHTSIPLSCIRAVEHVDEGAFQLPHVMQVVTQDGAGTSHTTYLQCKNVNDLNQWLSALRKASAPNPGKLVACHPGAFRSGRWTCCLQAERSAAGCSRTHSAITLGDWSDPLDPDAEAQAVYRQLLLGRDQLRLKLLEDSSLDTEVDPGRDSSATDGPCAEVLAQQRAATTHLLQVLEDLEQAHEEFQKRG
B3: MCF.2 cell line derived transforming sequence-like (endogenous, mouse forebrain) (protein, UniProt Q64096 1-1149)
chain: MSDCWCFIFCKEHVRSNPLSPQHDGASREEADHQVDVSDGIRLVPDKAEATAATASDEIMHQDIVPLCAADIQEQLKKRFAYLSGGRGQDGSPVITFPDYPAFSEIPDKEFQNVMTYLTSIPSLQDAGIGFILVIDRRQDKWTSVKASVLRIAASFPANLQLVLVLRPTGFFQRTLSDIAFKFNRDEFKMKVPVMMLSSVPELHGYIDKSQLTEDLGGTLDYCHSRWLCHRTAIESFALMVKQTAQMLQAFGTELAETELPNDVQSTSLVLSAHTEKKAKVKEDLQLALKEGNSILESLREPLAESAAHSVNQDQLDNQATVQRLLAQLNETEAAFDEFWAKHQQKLEQCLQLRHFEQGFREVKTTLDSMSQKIAAFTDVGNSLAHVQHLLKDLTAFEEKSSVAVDKARALSLEGQQLIENRHYAVDSIHPKCEELQHLCDHFASEVTRRRGLLSKSLELHSLLETSMKWSDEGIFLLASQPVDKCQSQDGAEAALQEIEKFLETGAENKIQELNEIYKEYECILNQDLLEHVQKVFQKQESTEEMFHRRQASLKKLAAKQTRPVQPVAPRPEALTKSPSPSPGSWRSSENSSSEGNALRRGPYRRAKSEMSEPRQGRTSSTGEEEESLAILRRHVMNELLDTERAYVEELLCVLEGYAAEMDNPLMAHLISTGLQNKKNILFGNMEEIYHFHNRNIPAGLESCIDCPELVGRCFLERMEEFQIYEKYCQNKPRSESLWRQCSDCPFFQECQKKLDHKLSLDSYLLKPVQRITKYQLLLKEMLKYSKHCEGAEDLQEALSSILGILKAVNDSMHLIAITGYDGNLGDLGKLLMQGSFSVWTDHKKGHTKVKELARFKPMQRHLFLHEKAVLFCKKREENGEGYEKAPSYSYKQSLNMTAVGITENVKGDTKKFEIWYNAREEVYIIQAPTPEIKAAWVNEIRKVLTSQLQACREASQHRALEQSHSLPLPTPSSTSPTKGNTRNVKKLEDRKTDPLSLEGYVSSSLPKPPEKGKGWSKTSHSLEAPEEDGGWSSAEELINSSDAEEDGGVGPKKLVPGKYTVVMDDEKGGPDTLAMRSGDMVEVVEEGAEGLWYVRDLTSSKEGWVPASSLSTLLGKSSSAQCLSSSGKIHCARQLCPEPAEILSPEPV
B4: phospholipase C β1 (endogenous, mouse forebrain) (enzyme, UniProt Q9Z1B3 1-1216)
chain: MAGAQPGVHALQLKPVCVSDSLKKGTKFVKWDDDSTIVTPIILRTDPQGFFFYWTDQNKETELLDLSLVKDARCGKHAKAPKDPKLRELLDVGNIGHLEQRMITVVYGPDLVNISHLNLVAFQEEVAKEWTNEVFSLATNLLAQNMSRDAFLEKAYTKLKLQVTPEGRIPLKNIYRLFSADRKRVETALEACSLPSSRNDSIPQEDFTPDVYRVFLNNLCPRPEIDNIFSEFGAKSKPYLTVDQMMDFINLKQRDPRLNEILYPPLKQEQVQVLIEKYEPNSSLAKKGQMSVDGFMRYLSGEENGVVSPEKLDLNEDMSQPLSHYFINSSHNTYLTAGQLAGNSSVEMYRQVLLSGCRCVELDCWKGRTAEEEPVITHGFTMTTEISFKEVIEAIAECAFKTSPFPILLSFENHVDSPKQQAKMAEYCRLIFGDALLMEPLEKYPLESGVPLPSPMDLMYKILVKNKKKSHKSSEGSGKKKLSEQASNTYSDSSSVFEPSSPGAGEADTESDDDDDDDDCKKSSMDEGTAGSEAMATEEMSNLVNYIQPVKFESFEISKKRNKSFEMSSFVETKGLEQLTKSPVEFVEYNKMQLSRIYPKGTRVDSSNYMPQLFWNAGCQMVALNFQTVDLAMQINMGMYEYNGKSGYRLKPEFMRRPDKHFDPFTEGIVDGIVANTLSVKIISGQFLSDKKVGTYVEVDMFGLPVDTRRKAFKTKTSQGNAVNPVWEEEPIVFKKVVLPSLACLRIAAYEEGGKFIGHRILPVQAIRPGYHYICLRNERNQPLTLPAVFVYIEVKDYVPDTYADVIEALSNPIRYVNLMEQRAKQLAALTLEDEEEVKKEADPGETSSEAPSETRTTPAENGVNHTASLAPKPPSQAPHSQPAPGSVKAPAKTEDLIQSVLTEVEAQTIEELKQQKSFVKLQKKHYKEMKDLVKRHHKKTTELIKEHTTKYNEIQNDYLRRRAALEKSAKKDSKKKSEPSSPDHGSSAIEQDLAALDAEMTQKLIDLKDKQQQQLLNLRQEQYYSEKYQKREHIKLLIQKLTDVAEECQNNQLKKLKEICEKEKKELKKKMDKKRQEKITEAKSKDKSQMEEEKTEMIRSYIQEVVQYIKRLEEAQSKRQEKLVEKHNEIRQQILDEKPKLQTELEQEYQDKFKRLPLEILEFVQEAMKGKISEDSNHGSAPPSLASDAAKVNLKSPSSEEIERENPGREFDTPL
B5: Snap91 (endogenous, mouse forebrain) (protein, UniProt Q61548 1-901)
chain: MSGQTLTDRIAAAQYSVTGSAVARAVCKATTHEVMGPKKKHLDYLIQATNETNVNIPQMADTLFERATNSSWVVVFKALVTTHHLMVHGNERFIQYLASRNTLFNLSNFLDKSGSHGYDMSTFIRRYSRYLNEKAFSYRQMAFDFARVKKGADGVMRTMVPEKLLKSMPILQGQIDALLEFDVHPNELTNGVINAAFMLLFKDLIKLFACYNDGVINLLEKFFEMKKGQCKDALEIYKRFLTRMTRVSEFLKVAEQVGIDKGDIPDLTQAPSSLMETLEQHLNTLEGKKPGNNEGSGAPSPLSKSSPATTVTSPNSTPAKTIDTSPPVDIFATASAAAPVSSAKPSSDLLDLQPDFSGAAAGAAAPVVPPSGGATAWGDLLGEDSLAALSSVPCEAPISDPFAPEPSPPTTTTEPASASASTTTAVTAVTTEVDLFGDAFAASPGEAPAASEGATAPATPAPVAAALDACSGNDPFAPSEGSAEAAPELDLFAMKPPETSAPVVTPTASTAPPVPATAPSPAPTAVAATAATTTAAAAATTTATTSAAAATTAAAPPALDIFGDLFDSAPEVAAAPKPDAAPSIDLFGTDAFSSPPRGASPVPESSLTADLLSVDAFAAPSPASTASPAKAESSGVIDLFGDAFGSGASETQPAPQAVSSSSASADLLAGFGGSFMAPSTTPVTPAQNNLLQPSFEAAFGTTPSTSSSSSFDPSVFDGLGDLLMPTMAPSGQPAPVSMVPPSPAMAASKGLGSDLDSSLASLVGNLGISGTTSKKGDLQWNAGEKKLTGGANWQPKVTPATWSAGVPPQGTVPPTSSVPPGAGAPSVGQPGAGFGMPPSGTGMTMMSQQPVMFAQPMMRPPFGAAAVPGTQLSPSPTPATQSPKKPPAKDPLADLNIKDFL

This assay deals with T1, IL1RAPL1-ICD fused with maltose-binding protein (entire cytoplasmic domain of mouse IL1RAPL1, residues 379-696) (mouse). Kind of assay: affinity purification with mass spectrometry; IL1RAPL1-ICD-MBP on amylose resin packed as affinity column; mouse forebrain proteins extracted in 2 M NaCl loaded; eluted with 0.5 M NaCl; SDS-PAGE, five bands stronger than in the MBP control analysed by LC-MS/MS; only the target purified.
With “Bat3 (endogenous, mouse forebrain) (from UniProt Q9Z1R2 1-1154)”, the binding entry was “binds”.
For the molecule “protein kinase C ε (endogenous, mouse forebrain) (from UniProt P16054 1-737) (enzyme)”, the binding result is on record as “binds”.
On to “spectrin β2 (from UniProt Q62261 1-2363)”, for which the binding result is recorded as “binds”.
The entry for “spectrin α2 (from UniProt P16546 1-2472)” is “binds”; for B1 it is “binds”; for B2 it is “binds”.
The entry for B3 is “binds”; for B4 it is “binds”; for B5 it is “binds”.
